The values that follow come from publication PMC7819943, “Rice protein-binding microarrays: a tool to detect cis-acting elements near promoter regions in rice”.

By UniProt entry, the sequences of proteins in these tests, tags left out.
UniProt Q0JBA9, entry or part of it: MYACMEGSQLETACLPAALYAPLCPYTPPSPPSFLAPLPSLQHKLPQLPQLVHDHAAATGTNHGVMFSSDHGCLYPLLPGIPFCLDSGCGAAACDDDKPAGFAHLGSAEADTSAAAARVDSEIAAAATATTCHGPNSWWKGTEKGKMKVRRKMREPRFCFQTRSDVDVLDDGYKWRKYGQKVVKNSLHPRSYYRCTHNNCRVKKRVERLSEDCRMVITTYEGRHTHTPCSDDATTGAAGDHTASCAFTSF

The other results are listed elsewhere or left out.

The target in the assay is OsWRKY34 (Oryza sativa, UniProt Q0JBA9 1-250). The assay is described as follows: protein-binding microarray (RPBM); PBS, 2% BSA, 51.3 ng/ul salmon testes DNA, 50 uM zinc acetate, 200 nM TF, 25 C, 1 h; high values mean tight binding. The conditions noted are these: protein: recombinant; tags: N-terminal polyhistidine and DsRed monomer fusion (pET32a); label: CyDye5-dUTP incorporated in the synthesized complementary strand; 3' TTTTT single-stranded linker to array surface; dsDNA, one strand shown. An outline of the steps:
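Transcription factors were made in E. coli BL21-CodonPlus as N-terminal fusions to a polyhistidine tag and DsRed, then purified on Ni–NTA. After primer extension with Cy5-dUTP and blocking with 2% BSA, a custom Agilent array was exposed for 1 h at 25 °C to 200 nM protein in PBS, 2% BSA, salmon testes DNA and 50 µM zinc acetate. Washed arrays were scanned on an Axon 4000B, and the binding signal is per-feature fluorescence intensity in arbitrary units.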
Turning to “AGCCGACGCGTGCGCTGCGCTCCCATTTTGCGTCGACGCCCGGAGTCACCTAGTGCAG”, the binding signal is 8240 fluorescence intensity (a.u.).
Turning to “ATTTTCATTTGGTTGGTGTGGTTATCTCTTTTTTCATTTACGGAGTCACCTAGTGCAG”, the binding signal is 20700 fluorescence intensity (a.u.).
Then “ATTAACAGCCTAGCTAGCTAGTGATCAGTGTTGACCGTTGCGGAGTCACCTAGTGCAG”, with 8200 fluorescence intensity (a.u.).
Then “TGACAATGGTGTTGCATCTCCAAAGCTGCAGAAACAAACACGGAGTCACCTAGTGCAG”, with 48300 fluorescence intensity (a.u.); and “CGTTAATTATTTTCAGTTTATTTCATGTTTTTTACAATTTCGGAGTCACCTAGTGCAG”, with 8840 fluorescence intensity (a.u.); and “ATGGTTCTAGTATTACGTGGCGCCTATGTGGCAGTGGCTCCGGAGTCACCTAGTGCAG”, with 8670 fluorescence intensity (a.u.).
Then “CACCACCAGTTCAGATATGCTGGCACCTCCCATCCAAAACCGGAGTCACCTAGTGCAG”, with 8330 fluorescence intensity (a.u.).
For “GACCACCGCCCGCGCCGCCGCGCAGCTGCCGACCACCGTCCGGAGTCACCTAGTGCAG”, the binding signal is 9360 fluorescence intensity (a.u.).
The figure for “TGTTCCTCGTGGTCTCCTCGGCTTCTCTCGCAATCTTCTGCGGAGTCACCTAGTGCAG” is 11800 fluorescence intensity (a.u.); for “TTATGTCACTTGTATGTGGATTAACTCTCAAGCCCCTCATCGGAGTCACCTAGTGCAG” it is 8090 fluorescence intensity (a.u.); for “TGTATTTGCTACCGTTTTCCAATATGTACCGTCATGTTTCCGGAGTCACCTAGTGCAG” it is 8720 fluorescence intensity (a.u.).
The figure for “ATGTGAACTAAACACACCCATACGTTTTGTCTGTGCTAATCGGAGTCACCTAGTGCAG” is 8160 fluorescence intensity (a.u.); for “GATCATTTCGGTTCAGGTTTTCGTTCTACTGTGCCGAGTTCGGAGTCACCTAGTGCAG” it is 8730 fluorescence intensity (a.u.); for “ACTTCATTGACGGTTTGACACTAATCCTAACATTCACATTCGGAGTCACCTAGTGCAG” it is 8120 fluorescence intensity (a.u.).
Then “TTTGCACAATTCTTCTTCTGGATGCCTGCAGCTGCAGCTGCGGAGTCACCTAGTGCAG”, with 10900 fluorescence intensity (a.u.); and “TTTAGGTGTGTTTGGTTGAGAGGCTAGAAGGGATGGGATGCGGAGTCACCTAGTGCAG”, with 8230 fluorescence intensity (a.u.); and “TTTTTATTCCATTTTATTTTACGCGCCGCAACGCAACTTCCGGAGTCACCTAGTGCAG”, with 11400 fluorescence intensity (a.u.).
For the sequence “TTATCGCCTCGCCTCTCGATCCCTCTCGTTCTTTCTCGCCCGGAGTCACCTAGTGCAG”, the binding signal was 8430 fluorescence intensity (a.u.).
Consider “GATTGGGTTGTTTGCGGGGCTAAGTTCCTAATTTTAATGACGGAGTCACCTAGTGCAG”, for which the binding signal is 11500 fluorescence intensity (a.u.).
The figure for “TCGTCTCTTTCCCTTTTGTTCTTCTTCGCCAGATCCCTTGCGGAGTCACCTAGTGCAG” is 8430 fluorescence intensity (a.u.).
The figure for “GTGATATTCTCTCTTTTTTACAAGTCATCCAAAATTTCATCGGAGTCACCTAGTGCAG” is 8510 fluorescence intensity (a.u.); for “ATCATTCATACCTAATATTGTGCTCGTGTTGTAAAAATTACGGAGTCACCTAGTGCAG” it is 8270 fluorescence intensity (a.u.); for “TGGAATCTACCACTGCCTCATCCAGTTCAATTCATTGCTTCGGAGTCACCTAGTGCAG” it is 8930 fluorescence intensity (a.u.).
